# Measured values taken from PubChem BioAssay AID504847 (National Center for Advancing Translational Sciences (NCATS), 2011).
# By UniProt entry, the sequences of proteins in these tests, tags left out. Where a name states a change or a piece, a line headed by the entry shows the natural chain unless it says otherwise.
# UniProt P11473: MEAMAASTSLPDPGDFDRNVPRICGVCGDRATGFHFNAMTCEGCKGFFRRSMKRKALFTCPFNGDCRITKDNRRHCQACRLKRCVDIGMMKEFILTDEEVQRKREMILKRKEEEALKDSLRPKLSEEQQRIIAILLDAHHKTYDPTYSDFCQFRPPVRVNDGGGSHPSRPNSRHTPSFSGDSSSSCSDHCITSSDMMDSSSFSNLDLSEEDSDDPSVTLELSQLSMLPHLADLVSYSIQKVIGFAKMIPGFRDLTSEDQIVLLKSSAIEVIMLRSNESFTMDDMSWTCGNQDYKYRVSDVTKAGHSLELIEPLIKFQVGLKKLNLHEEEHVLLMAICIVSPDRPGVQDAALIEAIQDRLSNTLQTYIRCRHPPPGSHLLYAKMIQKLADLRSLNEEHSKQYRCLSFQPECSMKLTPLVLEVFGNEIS
# About 3,700 (0.93%) of roughly 400,000 compounds were called active. Inconclusive means that the source gave no clear call. Such entries were picked first, then a sample of the others. Calls follow the shape of the dose curve; as a rule, active = well fitted inhibition curve with a large enough effect; inconclusive = small, poorly fitted or top-dose-only effect, or another doubt; inactive = no such curve, though single readings can be large or run the other way. A potency beside an inconclusive call is a rough fit, not a confirmed value.
# Biological target: Vitamin D3 receptor (Homo sapiens) (UniProt P11473)
# Test: Inhibitors of the vitamin D receptor (VDR): qHTS
# Conditions: VDR-SRC2-3 peptide fluorescence polarization, 2 h; max response, negative = inhibition: hits give low values
# How it was run: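 Inhibition of the VDR/SRC2-3 peptide interaction is quantified by fluorescence polarization. Compounds (23 nl, pintool) incubate with the reagents for 2 hours at ambient room temperature.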
# % is scaled to controls: 0 for no effect and ±100 for the full control effect; potency is read from the fitted curve at half-maximal effect.
Structure (SMILES),Potency,"max response, negative = inhibition"
COc1ccc(N(C(=O)c2ccncc2)S(=O)(=O)c2cccc([N+](=O)[O-])c2)cc1,"inconclusive: 15.8 µM [inhibitor, single point]",–
Cc1cccc(NC(=O)Cc2csc(COc3cccc(C)c3)n2)c1,–,inactive: 9.23%
C#CCOCCOCCOCCNc1nc(N2CCN(C(=O)Cn3cc(CCO)nn3)CC2)nc(N2CCN(C(=O)Cn3cc(CCO)nn3)CC2)n1,"inconclusive: 63.1 µM [inhibitor, partial curve, poor fit]",–
COc1ccc(/C=C2/SC(=S)N(CC(=O)O)C2=O)cc1OCc1ccc(Cl)cc1,"inconclusive: 56.2 µM [inhibitor, partial curve, poor fit]",–
Cc1cccc(-n2c(SCC(=O)c3ccccc3)nnc2-c2ccc(Br)cc2)c1,–,inactive: 3.1%
CC(C)c1nc(N2CCN(C(=O)c3ccccc3)CC2)c(C#N)c2c1COC(C)(C)C2,–,inactive: -7.59%
COc1ccc(-c2c(C)cc3oc(=O)cc(-c4ccccc4)c3c2C)cc1OC,"inconclusive: 39.8 µM [inhibitor, single point]",–
CCOc1cccc(NC(=O)/C(C#N)=C/c2cccnc2)c1,"inconclusive: 1.26 µM [inhibitor, full curve, poor fit]",–
O=C(NNc1ccc(O)cc1)c1ccc(Br)cc1,"inconclusive: 5.01 µM [inhibitor, partial curve, poor fit]",–
O=C(Nc1ccc(F)c(F)c1)c1ccccc1-c1ccccc1,"inconclusive: 39.8 µM [inhibitor, single point]",–
CSc1nc(=NC(C)=O)ss1,"inconclusive: 31.6 µM [inhibitor, partial curve]",–
CC(=O)NC1C(=O)N(CCN2CCOCC2)c2ccc(Cl)cc21 (centres undefined),"inconclusive: 89.1 µM [inhibitor, single point]",–
CC1(C)Cc2ccccc2/C(=C/C(=O)N2CCCCCC2)N1,–,inactive: 4.2%
CN1/C(=N\O)c2cccc3cccc1c23,"inconclusive: 100 µM [inhibitor, single point]",–
COc1ccc(CC(=O)Nc2ccc(-c3cn4ccc(C)cc4n3)cc2)cc1,"inconclusive: 100 µM [inhibitor, partial curve, poor fit]",–
CC(=O)N1CCc2cc(CNS(=O)(=O)c3ccc(Cl)s3)ccc21,–,inactive: 12.2%
NS(=O)(=O)c1ccc2nc(NC(=O)COc3ccccc3)sc2c1,"inconclusive: 25.1 µM [inhibitor, single point]",–
CN(Cc1ccco1)S(=O)(=O)c1nnc(NC(=O)c2cccc(Cl)c2)s1,"inconclusive: 89.1 µM [inhibitor, single point]",–
NS(=O)(=O)c1ccc(NC(=O)CSC2CCCCC2)cc1,"inconclusive: 25.1 µM [inhibitor, single point]",–
O=C(Nc1nc(-c2cc(Cl)sc2Cl)cs1)c1ccc(Br)s1,"inconclusive: 89.1 µM [inhibitor, single point]",–

Structure (SMILES),Potency,"max response, negative = inhibition"
Clc1nc(NCc2cccs2)c2[nH]cnc2n1,"inconclusive: 56.2 µM [inhibitor, partial curve, poor fit]",–
CC1=C(C)CS(=O)N(S(=O)(=O)c2ccc(Cl)cc2)C1 (centres undefined),active: 2.82 µM,–
CCOc1cc(/C=N/Nc2nc(-c3cccs3)c(NC(C)=O)s2)ccc1O,active: 35.5 µM,–
CC[C@]12c3[nH]c4cc(CCC(=O)N(C)C)ccc4c3CCN1C(=O)[C@@H](CC(=O)NCCCOC)C[C@@H]2C(=O)N1CCN(C(=O)C2CC2)CC1,"inconclusive: 89.1 µM [inhibitor, single point]",–
CC(C)CC(=O)N[C@H](C(=O)N[C@H](C(=O)N[C@@H](CC(C)C)[C@@H](O)CC(=O)N[C@@H](C)C(=O)N[C@@H](CC(C)C)[C@@H](O)CC(=O)O)C(C)C)C(C)C,"inconclusive: 89.1 µM [inhibitor, single point]",–
COc1ccc(OC2C(=O)N(Cc3ccc(F)cc3)C2c2cc(OC)c(OC)c(OC)c2)cc1 (centres undefined),"inconclusive: 89.1 µM [inhibitor, single point]",–
CCc1c(C)nc(N2CCN(c3ccc(OC)cc3)CC2)[nH]c1=O,–,inactive: -19.9%
CCCCOc1ccc(C(=O)NCC(=O)N2CCN(Cc3ccc4c(c3)OCO4)CC2)cc1,"inconclusive: 56.2 µM [inhibitor, single point]",–
Cc1ccc(C(=O)NC(=S)Nc2ccc(N3CCOCC3)cc2)c(C)c1,–,inactive: -1.05%
CCOn1c(=O)c(-c2ccc(Cl)cc2)[n+]([O-])c2ccccc21,"inconclusive: 39.8 µM [inhibitor, single point]",–
Cc1ccc(C2C3=C(CCCC3=O)Nc3[nH]c(=S)[nH]c(=O)c32)cc1 (centres undefined),active: 89.1 µM,–
Cc1cc(Br)ccc1OCCN1CCCC1,–,inactive: -8.27%
CC(=O)Nc1ccc(C(=O)/C=C/c2ccco2)cc1,"inconclusive: 89.1 µM [inhibitor, single point]",–
COc1ccc(-n2c(SC(CN3CCCCC3)CN3CCCC3=O)nc3ccccc3c2=O)cc1 (centres undefined),"inconclusive: 89.1 µM [inhibitor, single point]",–
CCCN(CC(=O)Nc1ccccc1C)C(=O)CCl,"inconclusive: 89.1 µM [inhibitor, single point]",–
O=C(NCC(=O)N1CCCCCC1)c1ccc(Cl)cc1,"inconclusive: 56.2 µM [inhibitor, partial curve, poor fit]",–
C[C@H](NC(=O)CNC(=O)[C@@H](NC(=O)[C@H](Cc1ccccc1)NC(=O)CNC(=O)CNC[C@@H](N)Cc1ccccc1)[C@@H](C)O)C(=O)N[C@@H](CCCN=C(N)N)C(=O)N[C@@H](CCCCN)C(=O)N[C@@H](CO)C(=O)N[C@@H](C)C(=O)N[C@@H](CCCN=C(N)N)C(=O)N[C@@H](CCCCN)C(N)=O,–,inactive: -3.83%
Cc1ccc(N2CCN(C(=S)c3ccc(-c4ccccc4[N+](=O)[O-])o3)CC2)cc1,"inconclusive: 79.4 µM [inhibitor, partial curve, poor fit]",–
CCOC(=O)Cc1csc(NC(=O)c2cc(C)c(C)s2)n1,–,inactive: -3.87%

# Part of the list above, as tab-separated lines.
Structure (SMILES)	Potency	max response, negative = inhibition
CC1=C(C)CS(=O)N(S(=O)(=O)c2ccc(Cl)cc2)C1 (centres undefined)	active: 2.82 µM	–
CCOc1cc(/C=N/Nc2nc(-c3cccs3)c(NC(C)=O)s2)ccc1O	active: 35.5 µM	–
CC[C@]12c3[nH]c4cc(CCC(=O)N(C)C)ccc4c3CCN1C(=O)[C@@H](CC(=O)NCCCOC)C[C@@H]2C(=O)N1CCN(C(=O)C2CC2)CC1	inconclusive: 89.1 µM [inhibitor, single point]	–
CC(C)CC(=O)N[C@H](C(=O)N[C@H](C(=O)N[C@@H](CC(C)C)[C@@H](O)CC(=O)N[C@@H](C)C(=O)N[C@@H](CC(C)C)[C@@H](O)CC(=O)O)C(C)C)C(C)C	inconclusive: 89.1 µM [inhibitor, single point]	–
COc1ccc(OC2C(=O)N(Cc3ccc(F)cc3)C2c2cc(OC)c(OC)c(OC)c2)cc1 (centres undefined)	inconclusive: 89.1 µM [inhibitor, single point]	–
CCc1c(C)nc(N2CCN(c3ccc(OC)cc3)CC2)[nH]c1=O	–	inactive: -19.9%
CCCCOc1ccc(C(=O)NCC(=O)N2CCN(Cc3ccc4c(c3)OCO4)CC2)cc1	inconclusive: 56.2 µM [inhibitor, single point]	–
Cc1ccc(C(=O)NC(=S)Nc2ccc(N3CCOCC3)cc2)c(C)c1	–	inactive: -1.05%
